# Laboratory results published in US20140005163A1 (NOVARTIS AG, priority 2010, published 2014).
# Chains of the proteins cited; added tags and fusions are not shown. A line that says so, or that is headed by a name, gives the form on record, which may keep a tag or linker. Residues count along the entry.
# UniProt P48736, 144-1102 limits assumed: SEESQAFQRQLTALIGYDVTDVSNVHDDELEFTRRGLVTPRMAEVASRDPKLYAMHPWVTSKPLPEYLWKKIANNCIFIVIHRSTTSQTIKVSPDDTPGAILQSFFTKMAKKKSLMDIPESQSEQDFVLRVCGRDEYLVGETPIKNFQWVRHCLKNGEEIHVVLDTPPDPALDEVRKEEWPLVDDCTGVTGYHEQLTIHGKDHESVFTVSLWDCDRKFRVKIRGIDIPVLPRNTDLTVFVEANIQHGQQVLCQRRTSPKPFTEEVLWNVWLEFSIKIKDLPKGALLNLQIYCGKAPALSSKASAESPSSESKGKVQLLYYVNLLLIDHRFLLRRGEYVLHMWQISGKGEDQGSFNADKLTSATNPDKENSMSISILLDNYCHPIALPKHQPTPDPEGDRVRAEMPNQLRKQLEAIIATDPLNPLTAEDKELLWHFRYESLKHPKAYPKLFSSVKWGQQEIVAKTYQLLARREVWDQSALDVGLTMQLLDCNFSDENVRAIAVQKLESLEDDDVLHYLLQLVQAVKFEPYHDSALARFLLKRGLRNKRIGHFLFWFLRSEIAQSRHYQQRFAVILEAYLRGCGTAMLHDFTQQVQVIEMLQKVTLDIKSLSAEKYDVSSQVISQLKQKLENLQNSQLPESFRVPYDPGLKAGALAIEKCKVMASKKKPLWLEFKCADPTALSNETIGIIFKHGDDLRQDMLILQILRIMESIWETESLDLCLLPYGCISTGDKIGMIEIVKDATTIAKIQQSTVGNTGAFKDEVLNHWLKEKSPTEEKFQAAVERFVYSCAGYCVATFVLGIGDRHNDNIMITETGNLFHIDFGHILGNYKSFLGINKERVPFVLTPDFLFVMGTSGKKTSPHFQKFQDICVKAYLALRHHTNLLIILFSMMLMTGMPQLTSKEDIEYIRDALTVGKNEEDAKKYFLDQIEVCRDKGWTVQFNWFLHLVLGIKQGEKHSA
# UniProt P42338, 2-1070 with tags or gaps limits assumed: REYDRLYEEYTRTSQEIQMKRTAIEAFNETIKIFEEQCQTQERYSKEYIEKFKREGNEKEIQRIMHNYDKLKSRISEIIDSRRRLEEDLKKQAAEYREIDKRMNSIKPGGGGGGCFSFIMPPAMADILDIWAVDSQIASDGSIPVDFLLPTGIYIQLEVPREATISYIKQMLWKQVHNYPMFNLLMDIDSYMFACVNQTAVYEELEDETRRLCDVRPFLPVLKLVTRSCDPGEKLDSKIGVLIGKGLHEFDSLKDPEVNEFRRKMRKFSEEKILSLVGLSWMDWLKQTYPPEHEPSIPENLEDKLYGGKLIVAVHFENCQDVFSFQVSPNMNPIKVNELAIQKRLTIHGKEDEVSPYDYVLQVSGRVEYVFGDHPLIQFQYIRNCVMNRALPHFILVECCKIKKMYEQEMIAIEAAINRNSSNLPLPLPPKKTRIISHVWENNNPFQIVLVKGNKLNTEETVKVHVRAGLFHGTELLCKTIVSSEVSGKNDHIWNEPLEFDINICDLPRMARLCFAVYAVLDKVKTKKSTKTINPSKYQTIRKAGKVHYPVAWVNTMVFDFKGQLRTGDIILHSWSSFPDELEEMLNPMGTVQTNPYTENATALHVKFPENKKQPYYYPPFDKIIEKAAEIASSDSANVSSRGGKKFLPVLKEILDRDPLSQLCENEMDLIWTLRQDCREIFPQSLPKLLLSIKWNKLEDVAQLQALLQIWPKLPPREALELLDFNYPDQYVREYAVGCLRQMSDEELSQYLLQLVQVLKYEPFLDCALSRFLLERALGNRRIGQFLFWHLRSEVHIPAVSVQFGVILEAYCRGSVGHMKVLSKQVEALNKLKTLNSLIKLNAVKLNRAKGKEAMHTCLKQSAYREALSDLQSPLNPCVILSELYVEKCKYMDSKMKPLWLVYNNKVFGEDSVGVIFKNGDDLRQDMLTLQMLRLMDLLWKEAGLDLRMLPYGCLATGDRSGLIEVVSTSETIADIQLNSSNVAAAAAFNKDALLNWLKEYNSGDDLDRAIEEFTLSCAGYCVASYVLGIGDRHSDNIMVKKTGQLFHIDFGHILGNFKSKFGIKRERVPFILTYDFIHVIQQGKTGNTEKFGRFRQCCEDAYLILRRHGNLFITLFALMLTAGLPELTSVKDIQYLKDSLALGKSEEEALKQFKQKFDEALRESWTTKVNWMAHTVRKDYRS
# UniProt P42345, 1360-2549 limits assumed: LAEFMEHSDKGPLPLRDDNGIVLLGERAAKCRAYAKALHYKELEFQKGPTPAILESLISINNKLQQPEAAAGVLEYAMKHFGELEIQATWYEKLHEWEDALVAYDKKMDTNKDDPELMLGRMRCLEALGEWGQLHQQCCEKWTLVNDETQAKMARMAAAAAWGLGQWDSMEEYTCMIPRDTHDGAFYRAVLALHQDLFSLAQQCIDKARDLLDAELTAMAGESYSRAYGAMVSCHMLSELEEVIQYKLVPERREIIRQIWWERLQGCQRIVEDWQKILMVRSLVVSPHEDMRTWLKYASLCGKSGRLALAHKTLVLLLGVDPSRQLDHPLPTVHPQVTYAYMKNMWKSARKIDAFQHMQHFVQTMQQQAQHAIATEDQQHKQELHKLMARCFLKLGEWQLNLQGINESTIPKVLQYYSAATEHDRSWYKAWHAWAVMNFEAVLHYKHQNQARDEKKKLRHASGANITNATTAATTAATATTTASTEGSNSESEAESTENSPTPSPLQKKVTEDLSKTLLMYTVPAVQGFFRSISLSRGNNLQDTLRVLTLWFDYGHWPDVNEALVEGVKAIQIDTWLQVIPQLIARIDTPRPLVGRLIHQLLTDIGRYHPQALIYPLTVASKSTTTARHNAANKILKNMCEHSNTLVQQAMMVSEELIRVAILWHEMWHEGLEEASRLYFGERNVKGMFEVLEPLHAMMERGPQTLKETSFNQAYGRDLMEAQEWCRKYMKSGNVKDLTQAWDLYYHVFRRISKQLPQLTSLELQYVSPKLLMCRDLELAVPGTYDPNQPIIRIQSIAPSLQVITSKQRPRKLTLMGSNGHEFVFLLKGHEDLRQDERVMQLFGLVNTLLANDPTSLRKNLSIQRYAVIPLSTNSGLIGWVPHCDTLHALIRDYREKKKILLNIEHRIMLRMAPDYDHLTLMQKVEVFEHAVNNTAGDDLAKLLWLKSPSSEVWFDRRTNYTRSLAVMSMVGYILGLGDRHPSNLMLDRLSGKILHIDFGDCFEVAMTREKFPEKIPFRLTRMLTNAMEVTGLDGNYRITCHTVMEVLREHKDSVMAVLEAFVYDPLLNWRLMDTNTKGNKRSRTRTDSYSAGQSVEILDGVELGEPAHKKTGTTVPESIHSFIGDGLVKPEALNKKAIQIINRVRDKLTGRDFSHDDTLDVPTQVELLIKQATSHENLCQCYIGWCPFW
# UniProt O00329, 2-1044 with tags or gaps limits assumed: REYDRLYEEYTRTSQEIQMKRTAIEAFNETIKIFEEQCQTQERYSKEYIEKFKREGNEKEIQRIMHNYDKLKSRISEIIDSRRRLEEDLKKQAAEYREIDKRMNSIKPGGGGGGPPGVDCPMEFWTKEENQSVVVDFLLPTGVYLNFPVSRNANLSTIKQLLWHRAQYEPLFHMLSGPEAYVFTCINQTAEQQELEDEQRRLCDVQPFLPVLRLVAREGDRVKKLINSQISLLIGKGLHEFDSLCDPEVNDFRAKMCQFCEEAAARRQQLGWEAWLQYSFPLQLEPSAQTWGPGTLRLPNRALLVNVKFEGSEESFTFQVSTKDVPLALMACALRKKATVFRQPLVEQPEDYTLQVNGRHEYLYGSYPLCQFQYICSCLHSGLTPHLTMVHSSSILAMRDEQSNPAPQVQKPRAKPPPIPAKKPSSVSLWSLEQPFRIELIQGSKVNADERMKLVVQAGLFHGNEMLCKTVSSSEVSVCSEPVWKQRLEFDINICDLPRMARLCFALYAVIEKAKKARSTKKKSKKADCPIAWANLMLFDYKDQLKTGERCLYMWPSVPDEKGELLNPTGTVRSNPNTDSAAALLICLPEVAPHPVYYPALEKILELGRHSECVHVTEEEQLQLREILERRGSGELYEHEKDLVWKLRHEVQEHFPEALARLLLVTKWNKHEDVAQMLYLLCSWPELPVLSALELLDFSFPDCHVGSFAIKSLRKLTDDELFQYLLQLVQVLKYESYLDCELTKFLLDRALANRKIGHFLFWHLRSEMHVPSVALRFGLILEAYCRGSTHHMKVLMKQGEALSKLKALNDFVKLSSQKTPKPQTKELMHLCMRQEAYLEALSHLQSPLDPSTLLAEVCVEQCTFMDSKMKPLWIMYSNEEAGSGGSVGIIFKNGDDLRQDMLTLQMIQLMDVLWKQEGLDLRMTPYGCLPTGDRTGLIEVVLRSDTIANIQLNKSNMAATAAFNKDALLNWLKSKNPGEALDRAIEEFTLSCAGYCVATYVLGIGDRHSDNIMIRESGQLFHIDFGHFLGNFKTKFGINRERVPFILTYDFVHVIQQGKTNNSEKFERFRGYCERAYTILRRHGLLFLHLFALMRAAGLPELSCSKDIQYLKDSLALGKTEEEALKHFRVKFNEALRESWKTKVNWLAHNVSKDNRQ
# UniProt P42336, 21-1068 with tags or gaps limits assumed: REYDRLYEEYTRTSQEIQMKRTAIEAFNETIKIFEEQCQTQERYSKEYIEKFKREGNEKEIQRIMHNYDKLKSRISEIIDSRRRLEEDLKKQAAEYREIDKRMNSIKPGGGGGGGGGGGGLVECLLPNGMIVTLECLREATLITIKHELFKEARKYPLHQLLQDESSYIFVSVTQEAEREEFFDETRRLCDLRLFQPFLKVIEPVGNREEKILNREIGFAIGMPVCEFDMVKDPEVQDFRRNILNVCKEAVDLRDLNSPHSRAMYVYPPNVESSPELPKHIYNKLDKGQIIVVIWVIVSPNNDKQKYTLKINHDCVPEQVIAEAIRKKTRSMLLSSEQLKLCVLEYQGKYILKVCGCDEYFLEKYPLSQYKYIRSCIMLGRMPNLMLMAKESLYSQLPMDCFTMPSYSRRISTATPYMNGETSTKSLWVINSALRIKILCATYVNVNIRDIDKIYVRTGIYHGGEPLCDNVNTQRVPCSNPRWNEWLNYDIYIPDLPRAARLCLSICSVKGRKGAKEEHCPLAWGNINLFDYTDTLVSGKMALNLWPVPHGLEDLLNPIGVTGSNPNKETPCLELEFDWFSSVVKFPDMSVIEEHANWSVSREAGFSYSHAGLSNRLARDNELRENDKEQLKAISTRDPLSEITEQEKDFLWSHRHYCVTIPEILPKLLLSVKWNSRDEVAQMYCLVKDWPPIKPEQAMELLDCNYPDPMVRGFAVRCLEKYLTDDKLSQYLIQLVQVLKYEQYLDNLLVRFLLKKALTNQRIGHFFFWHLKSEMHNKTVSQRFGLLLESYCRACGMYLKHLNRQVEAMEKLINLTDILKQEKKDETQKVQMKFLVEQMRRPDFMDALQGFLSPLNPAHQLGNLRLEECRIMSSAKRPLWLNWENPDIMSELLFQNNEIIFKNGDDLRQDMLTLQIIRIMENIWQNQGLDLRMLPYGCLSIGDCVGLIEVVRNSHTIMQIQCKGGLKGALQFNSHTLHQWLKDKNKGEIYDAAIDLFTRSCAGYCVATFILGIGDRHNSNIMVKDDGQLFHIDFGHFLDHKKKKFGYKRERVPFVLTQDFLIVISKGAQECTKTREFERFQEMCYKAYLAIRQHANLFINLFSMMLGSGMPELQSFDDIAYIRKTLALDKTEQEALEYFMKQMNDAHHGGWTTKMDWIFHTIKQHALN
# Columns and labels:
# PI3K gamma = PI3K gamma (Homo sapiens, UniProt P48736); test: PI3K gamma kinase assay (Kinase-Glo luminescence); details: read-out: PI3K gamma IC50
# [1] = tested on: S6 Ribosomal Protein phosphorylation Ser235/236 in TSC1 null mouse embryo fibroblast (MEF) cells; test: Reverse protein array assay, S6 Ribosomal Protein phosphorylation Ser235/236 in TSC1 null MEF cells; details: read-out: p-S6 IC50, pS6 ribosomal protein Ser235/236, 60 minutes incubation
# PI3K beta = PI3K beta (Homo sapiens, UniProt P42338); test: PI3K beta kinase assay (Kinase-Glo luminescence); details: read-out: PI3K beta IC50
# [2] = tested on: PKB Ser473 phosphorylation in Rat1-myr-HA-p110 beta cells; test: Reverse protein array assay, PKB Ser473 phosphorylation in Rat1-myr-p110 beta cells; assay type: cell-based; details: read-out: p-PKB IC50, pAkt Ser473, 30 minutes incubation
# [3] = tested on: PKB Ser473 phosphorylation in Rat1-myr-HA-p110 delta cells; test: Reverse protein array assay, PKB Ser473 phosphorylation in Rat1-myr-p110 delta cells; details: read-out: p-PKB IC50
# mTOR = mTOR (Homo sapiens, UniProt P42345); test: Biochemical assay for m-TOR by TR-FRET; details: read-out: mTOR IC50, 8 μM ATP, 400 nM GFP-4EBP1, 0.5 nM mTOR
# [4] = tested on: PKB Ser473 phosphorylation in Rat1-myr-HA-p110 alpha cells; test: Reverse protein array assay, PKB Ser473 phosphorylation in Rat1-myr-p110 alpha cells; details: read-out: p-PKB IC50, pAkt Ser473, 30 minutes compound incubation
# PI3K delta = PI3K delta (Homo sapiens, UniProt O00329); test: PI3K delta kinase assay (Kinase-Glo luminescence); details: read-out: PI3K delta IC50
# PI3K alpha = PI3K alpha (Homo sapiens, UniProt P42336); test: PI3K alpha kinase assay (Kinase-Glo luminescence); details: read-out: PI3K alpha IC50
SMILES,IC50 (PI3K gamma) [nM],IC50 [1] [nM],IC50 (PI3K beta) [nM],IC50 [2] [nM],IC50 [3] [nM],IC50 (mTOR) [nM],IC50 [4] [nM],IC50 (PI3K delta) [nM],IC50 (PI3K alpha) [nM]
"Cc1nn(C)cc1-n1c(=O)n(C)c2cnc3ccc(-c4ccc(N)nc4)cc3c21 [Example 23.1, 8-(6-Amino-pyridin-3-yl)-1-(1,3-dimethyl-1H-pyrazol-4-yl)-3-methyl-1,3-dihydro-imidazo[4,5-c]quinolin-2-one]",160,–,–,–,–,–,–,–,–
"Cc1nn(C)cc1-n1c(=O)n(C)c2cnc3ccc(-c4cnc(N)c(C(F)(F)F)c4)cc3c21 [Example 25.1, 8-(6-Amino-5-trifluoromethyl-pyridin-3-yl)-1-(1,3-dimethyl-1H-pyrazol-4-yl)-3-methyl-1,3-dihydro-imidazo[4,5-c]quinolin-2-one]",303,–,–,–,–,–,–,–,–
COCCOc1cc(-c2ccc3ncc4c(c3c2)n(-c2cn(C)nc2Cl)c(=O)n4C)cnc1C,–,3,13,22,22,6,8,5,12

# Structures were worked out from names or drawings and are uncertain.
